In all, about 330,000 compounds went through this assay and about 7,700 (2.3%) were called active. This list was built around the results that the source calls inconclusive (neither active nor inactive); the mix of calls is not that of the screen. Calls come from the whole dose curve; as a rule, active = well fitted inhibition curve with a large enough effect; inconclusive = small, poorly fitted or top-dose-only effect, or effect the other way; inactive = flat fitted curve, though single readings scatter. Potencies beside an inconclusive call are fits to weak or partial responses and may not hold up.
Experiment: qHTS screen for small molecules that inhibit ELG1-dependent DNA repair in human embryonic kidney (HEK293T) cells expressing luciferase-tagged ELG1; note: nearly all actives have a fitted effect of over 55% in size
Details: HEK293T ELG1-luciferase reporter, luminescence, 16 h, DNA damage induced by 5-fluorouridine; series mostly up to 46.1 µM
Procedure, shortened: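 HEK293T cells expressing luciferase-tagged ELG1 (2,000/well) received 5-Fluorouridine plus compound or DMSO for 16 hr at 37 °C. Luciferase was read by ONE-Glo luminescence after 30 min at room temperature.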
Potency is the fitted concentration of half-maximal effect.

Compound | Potency
Cc1ccc(/C(O)=C2\C(=O)C(=O)N(C)C2c2ccccc2[N+](=O)[O-])cc1 (stereo not given) | inconclusive: 15.8 µM [activator, single point]
Cc1ccc(S(=O)(=O)n2cnc(C)c2)cc1 | inactive
COc1ccc(S(=O)(=O)N2CCN(CC(=O)Nc3cc(C(F)(F)F)ccc3Cl)CC2)cc1 | inactive
C[C@@H](C[C@@H](O)[C@H](O)C(C)(C)O)[C@@H]1CC[C@]2(C)C3=CC[C@H]4C(C)(C)C(=O)CC[C@]4(C)[C@H]3CC[C@@]12C | inactive
CC(=O)NN1C(=O)/C(=C2/Sc3ccccc3N2C)SC1=S | inconclusive: 20.6 µM [activator, partial curve, poor fit]
Cc1cc(C)c(C(N)=O)c(Nc2ccc(F)cc2)n1 | inactive
O=C(C1CCN(S(=O)(=O)N2CCC3(CC2)OCCO3)CC1)N1CCN(Cc2ccccc2)CC1 | inactive
Cc1csc(=Nc2ccccc2)n1C | inconclusive: 20.6 µM [activator, single point]
CCC(=O)Nc1ccc2oc(-c3cccnc3)nc2c1 | inconclusive: 20.6 µM [activator, partial curve]
COc1ccc(-c2ccc(-c3nnn(CC(C)=O)n3)cc2)cc1 | inconclusive: 5.17 µM [activator, partial curve]
CC1CCCC(C)N1C(=O)Cn1cc(/C=C2/C(=O)Nc3ccccc32)c2ccccc21 (stereo not given) | inconclusive: 18.4 µM [inhibitor, partial curve]
CCn1c(SCC(=O)Nc2ccc(OC)cc2)nc2nc3c(cc2c1=O)CCCC3 | inconclusive: 20.6 µM [inhibitor, partial curve]
O=C(Nc1nc2ccccc2s1)c1cccc(N2C(=O)CCC2=O)c1 | inactive
C/C(N)=C(/C#N)C(=O)COC(=O)c1cc(-c2cccc3ccccc23)nc2ccccc12 | inconclusive: 29.1 µM [inhibitor, single point]
COc1ccc(-c2cc(C(=O)N3CCN(c4ccccc4O)CC3)c3ccccc3n2)cc1 | inactive
CC(=O)NCCCNc1ccc([N+](=O)[O-])cc1 | inconclusive: 18.4 µM [activator, partial curve]
S=C(NCCc1ccccc1)N1CCN(C23CC4CC(CC(C4)C2)C3)CC1 | inconclusive: 16.4 µM [inhibitor, single point]
CCCN(CCC)S(=O)(=O)c1cccc(C(=O)N=c2sccn2C)c1 | inconclusive: 29.1 µM [inhibitor, single point]
OCC#CCSc1nnc(-c2ccc(Br)cc2)o1 | inconclusive: 16.4 µM [activator, single point]
O=C(NC1CC1)c1ccc(N2CCCCC2)c([N+](=O)[O-])c1 | inconclusive: 25.9 µM [activator, partial curve, poor fit]
O=C(CSc1ccccc1F)NNC(=O)c1ccncc1 | inactive
COc1cc(NC(=O)CNc2cccc(S(=O)(=O)N3CCCC3)c2)cc(OC)c1 | inconclusive: 9.2 µM [inhibitor, partial curve]
CCc1cccc(CC)c1NC(=S)Nc1ccc2cn[nH]c2c1 | inconclusive: 5.17 µM [inhibitor, partial curve, poor fit]

Compound | Potency
CCCCNc1nc(=S)n(-c2ccccc2)c(C)c1C(C)=O | inactive
CCCCOc1ccc(/C=C/C(=O)N(CC)CC(=O)Nc2ccc3c(c2)OCCO3)cc1OC | active: 18.3 µM
O=C(c1ccccc1F)N1CCN(c2ccc([N+](=O)[O-])c3ncccc23)CC1 | inconclusive: 23.1 µM [inhibitor, partial curve]
CC(C#Cc1c([C@@H](C)Oc2ccccc2)nnn1Cc1ccccc1)Oc1ccccc1 (stereo not given in full) | inconclusive: 29.1 µM [inhibitor, single point]
COc1ccc(-c2cc(C(=O)NC(C(=O)O)C(C)C)c(C)o2)cc1OC (stereo not given) | inconclusive: 18.4 µM [activator, partial curve]
COc1ccc(NS(=O)(=O)c2ccc(O)c(NS(=O)(=O)c3ccc(NC(C)=O)cc3)c2)cc1 | inactive
CC(C)CN(C(=O)COC(=O)c1ccc2c(c1)OCO2)c1c(N)n(Cc2ccccc2)c(=O)[nH]c1=O | inactive
COc1ccc(C)cc1S(=O)(=O)N1CCN(C(=O)c2ncoc2-c2ccccc2F)CC1 | inactive
COc1ccc(/C=C(\C#N)C(=O)Nc2cccnc2)cc1 | inactive
O=C(CSc1nnc(-c2ccc(Br)cc2)n1C1CCCCC1)N1CCCC1 | inactive
COc1ccc(CSCC(=O)N/N=C/c2ccc(OCC(=O)NCc3ccco3)cc2)cc1 | inconclusive: 18.4 µM [inhibitor, partial curve, poor fit]
CCOc1ccc(N2Nc3n[nH]c(N)c3N2)cc1 | inconclusive: 20.6 µM [activator, partial curve]
Cc1ccc(NC(=S)NCc2cccs2)cc1 | inconclusive: 14.6 µM [activator, partial curve]
COc1ccc(-n2cnc3cc(NC(=O)c4ccco4)ccc32)cc1 | inactive
Cc1cc(NS(=O)(=O)c2ccccc2)c(C)c(Cl)c1O | inconclusive: 35.5 µM [inhibitor, single point]
CC(C)(C)NC(=O)CSc1nnnn1C(C)(C)C | inconclusive: 20.6 µM [activator, single point]
Cc1ccnc(Nc2nc(-c3c(C)nc4sccn34)cs2)c1 | active: 25.9 µM
O=C(OCc1ccccc1)c1cccc(-c2nnn(Cc3ccccc3)n2)c1 | inconclusive: 5.17 µM [activator, full curve]
CCCCc1ccc(S(=O)(=O)N/N=C(/C)c2ccncc2)cc1 | inconclusive: 14.6 µM [inhibitor, partial curve, poor fit]
CCOc1cc(NC(=O)c2ccccn2)c(OCC)cc1NC(=O)c1ccc(Cl)cc1 | inactive
O=C(CCn1c2c(c3ccccc31)CCCC2)NNC(=O)c1cccc([N+](=O)[O-])c1 | inconclusive: 29.1 µM [inhibitor, partial curve, poor fit]
FC(F)(F)c1nnc2ccc(N3CCCCCC3)nn12 | inconclusive: 14.6 µM [activator, partial curve, poor fit]

Pulled one by one from the list above, three records:
Compound | Potency
Cc1ccc(NC(=S)NCc2cccs2)cc1 | inconclusive: 14.6 µM [activator, partial curve]
Cc1cc(NS(=O)(=O)c2ccccc2)c(C)c(Cl)c1O | inconclusive: 35.5 µM [inhibitor, single point]
O=C(CSc1ccccc1F)NNC(=O)c1ccncc1 | inactive

From PubChem BioAssay AID504467 (National Center for Advancing Translational Sciences (NCATS), 2011)
